For the assay, the target named is T1, hephaestin (human (endogenous in iPSC-derived ECs)) (UniProt Q9BQS7).
T1 sequence: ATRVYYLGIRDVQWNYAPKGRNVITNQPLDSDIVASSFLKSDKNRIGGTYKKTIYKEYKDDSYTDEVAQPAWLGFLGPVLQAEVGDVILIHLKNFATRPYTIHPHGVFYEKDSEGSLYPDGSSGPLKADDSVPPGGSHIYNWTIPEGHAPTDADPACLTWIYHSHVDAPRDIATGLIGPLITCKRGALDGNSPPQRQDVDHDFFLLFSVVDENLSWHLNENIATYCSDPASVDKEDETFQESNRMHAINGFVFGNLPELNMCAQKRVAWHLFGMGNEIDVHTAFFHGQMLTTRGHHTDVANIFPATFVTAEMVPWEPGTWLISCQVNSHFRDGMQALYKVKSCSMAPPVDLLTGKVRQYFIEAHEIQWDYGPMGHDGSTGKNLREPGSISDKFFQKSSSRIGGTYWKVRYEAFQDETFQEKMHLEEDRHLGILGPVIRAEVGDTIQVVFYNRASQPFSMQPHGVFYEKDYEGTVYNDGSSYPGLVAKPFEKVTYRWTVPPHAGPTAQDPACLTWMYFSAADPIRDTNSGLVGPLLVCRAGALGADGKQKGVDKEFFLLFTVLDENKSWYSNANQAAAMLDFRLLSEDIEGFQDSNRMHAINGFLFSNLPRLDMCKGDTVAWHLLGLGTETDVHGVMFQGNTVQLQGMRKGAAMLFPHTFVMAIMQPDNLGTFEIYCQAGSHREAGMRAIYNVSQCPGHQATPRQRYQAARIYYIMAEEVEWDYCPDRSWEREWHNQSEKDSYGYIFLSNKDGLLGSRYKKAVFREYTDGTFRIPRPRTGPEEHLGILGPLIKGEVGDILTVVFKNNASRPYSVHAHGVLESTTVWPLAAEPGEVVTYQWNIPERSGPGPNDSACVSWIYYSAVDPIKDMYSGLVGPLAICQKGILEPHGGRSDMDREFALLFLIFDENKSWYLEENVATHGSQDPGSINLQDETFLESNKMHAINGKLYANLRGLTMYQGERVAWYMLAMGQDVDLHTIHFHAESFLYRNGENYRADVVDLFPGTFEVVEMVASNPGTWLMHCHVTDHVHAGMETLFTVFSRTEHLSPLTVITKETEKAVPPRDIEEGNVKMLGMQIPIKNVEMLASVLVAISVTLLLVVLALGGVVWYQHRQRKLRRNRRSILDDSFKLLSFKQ
Briefly: co-IP; iPSC-derived ECs, lysed; Protein G magnetic beads with anti-Heph antibody; endogenous Fpn with endogenous Heph.

Results are given in words; binding and its absence hold for the method and conditions named. In cells and extracts the contact can be indirect. Some binding calls cover weakened binding; strength is not graded here.

B1: ferroportin (protein, UniProt Q9NP59 1-571)
chain: MTRAGDHNRQRGCCGSLADYLTSAKFLLYLGHSLSTWGDRMWHFAVSVFLVELYGNSLLLTAVYGLVVAGSVLVLGAIIGDWVDKNARLKVAQTSLVVQNVSVILCGIILMMVFLHKHELLTMYHGWVLTSCYILIITIANIANLASTATAITIQRDWIVVVAGEDRSKLANMNATIRRIDQLTNILAPMAVGQIMTFGSPVIGCGFISGWNLVSMCVEYVLLWKVYQKTPALAVKAGLKEEETELKQLNLHKDTEPKPLEGTHLMGVKDSNIHELEHEQEPTCASQMAEPFRTFRDGWVSYYNQPVFLAGMGLAFLYMTVLGFDCITTGYAYTQGLSGSILSILMGASAITGIMGTVAFTWLRRKCGLVRTGLISGLAQLSCLILCVISVFMPGSPLDLSVSPFEDIRSRFIQGESITPTKIPEITTEIYMSNGSNSANIVPETSPESVPIISVSLLFAGVIAARIGLWSFDLTVTQLLQENVIESERGIINGVQNSMNYLLDLLHFIMVILAPNPEAFGLLVLISVSFVAMGHIMYFRFAQNTLGNKLFACGPDAKEVRKENQANTSVV
Consider B1, for which the binding entry is listed as “binds”.

(Values after publication PMC9882672.)
